# Experimental data published in PubChem BioAssay AID540256 (National Center for Advancing Translational Sciences (NCATS), 2011).
# In all, about 300,000 compounds went through this assay and about 3,700 (1.2%) were called active. Inconclusive means that the source gave no clear call. Such entries were picked first, then a sample of the others. Calls follow the shape of the full dose curve; tested in HEK293 cells. Where the call is inconclusive, the potency comes from a doubtful curve fit.
# Test: qHTS for Inhibitors of binding or entry into cells for Lassa Virus; also: nearly all actives have a fitted effect of over 50% in size
# Details: Lassa virus pseudotype entry inhibition, cell reporter; series mostly up to 37.9 µM
# Potency is read from the fitted curve at half-maximal effect.
row,Compound,Potency
1,c1ccc(C2CCC(N3CCN(c4ccccc4)CC3)CC2)cc1 (centres undefined),active: 2.82 µM
2,CCOc1ccc(N=Cc2c(O)n(C(C)(C)C)c(=O)[nH]c2=O)cc1,"inconclusive: 5.17 µM [inhibitor, partial curve]"
3,Cc1ccc(C(=O)/C=C/Nc2ccc3c(c2)OCO3)cc1,"inconclusive: 5.62 µM [inhibitor, single point]"
4,CCSc1nnc(NC(=O)c2cccs2)s1,"inconclusive: 6.51 µM [activator, partial curve, poor fit]"
5,Cc1ccc(CN2CCC(c3nc4ccc(Cl)cc4[nH]3)CC2)cc1,"inconclusive: 29.1 µM [inhibitor, single point]"
6,COc1ccccc1CN(C)C(=O)COC(=O)c1c(C)noc1C,"inconclusive: 4.47 µM [activator, full curve, poor fit]"
7,N#Cc1cnn2c(N)c(-c3ccc(Cl)cc3)cnc12,"inconclusive: 8.91 µM [inhibitor, partial curve, poor fit]"
8,O=S(=O)(NCC1OCCc2ccccc21)c1ccc(S(=O)(=O)N2CCOCC2)cc1 (centres undefined),"inconclusive: 0.517 µM [inhibitor, full curve, poor fit]"
9,COc1ccc(/C=N/NC(=O)c2cnccn2)cc1O,inactive
10,O=C(Cc1cccs1)NCCCc1ccccc1,"inconclusive: 11.2 µM [inhibitor, partial curve, poor fit]"
11,C/C(=N\NC(=O)c1[nH]c2c([N+](=O)[O-])cc(C)cc2c1-c1ccccc1)c1cccnc1,"inconclusive: 8.91 µM [inhibitor, partial curve, poor fit]"
12,CCOC(=O)CSC1=C(C#N)C(c2ccc(Cl)cc2)C(C(=O)OC)C(=O)N1 (centres undefined),"inconclusive: 11.6 µM [inhibitor, partial curve, poor fit]"
13,CC(C)c1nc(N2CCN(C(=O)c3ccco3)CC2)c2c3c(sc2n1)CCCC3,"inconclusive: 18.3 µM [inhibitor, single point]"
14,Cc1cc(C)nc(N/N=C/c2ccccc2OCC(=O)O)n1,"inconclusive: 14.1 µM [activator, single point]"
15,CCOC(=O)C1CCN(Cc2cnc(Oc3ccc(N)cc3)s2)CC1,"inconclusive: 20.6 µM [inhibitor, single point]"
16,COCCCN1CC(=O)N2C(c3cccc(C)c3)c3[nH]c4ccccc4c3C[C@H]2C1=O (some centres undefined),inactive
17,COc1ccccc1CNS(=O)(=O)c1ccc2c(c1)CC(C)N2C(C)=O (centres undefined),inactive
18,O=C(Nc1ccc(Br)cc1Cl)NC1CC1,"inconclusive: 12.6 µM [inhibitor, partial curve, poor fit]"
19,COC(=O)C(O)(c1ccc(N(C)S(=O)(=O)c2ccccc2)cc1)C(F)(F)F (centres undefined),"inconclusive: 14.1 µM [inhibitor, single point]"
20,Cc1ccccc1C(=O)Nc1cccc(-c2ccc3nncn3n2)c1,"inconclusive: 8.91 µM [inhibitor, partial curve, poor fit]"
21,CCOc1ccc2[nH]c(=O)c(C(c3nnnn3Cc3ccco3)N3CCN(C)CC3)cc2c1 (centres undefined),inactive
22,COc1ccc(-c2ccc(S(=O)(=O)N3CCCC3)cc2)cc1,"inconclusive: 3.98 µM [inhibitor, partial curve, poor fit]"
23,CSCCC(NC(=O)c1ccccc1)C(=O)OCC(=O)c1ccc[nH]1 (centres undefined),"inconclusive: 0.501 µM [activator, single point]"

# Entries from the list above that contain an aryl methoxy group (4):
row,Compound,Potency
6,COc1ccccc1CN(C)C(=O)COC(=O)c1c(C)noc1C,"inconclusive: 4.47 µM [activator, full curve, poor fit]"
9,COc1ccc(/C=N/NC(=O)c2cnccn2)cc1O,inactive
17,COc1ccccc1CNS(=O)(=O)c1ccc2c(c1)CC(C)N2C(C)=O (centres undefined),inactive
22,COc1ccc(-c2ccc(S(=O)(=O)N3CCCC3)cc2)cc1,"inconclusive: 3.98 µM [inhibitor, partial curve, poor fit]"

# Reprinted at random: two compounds from above
row,Compound,Potency
4,CCSc1nnc(NC(=O)c2cccs2)s1,"inconclusive: 6.51 µM [activator, partial curve, poor fit]"
21,CCOc1ccc2[nH]c(=O)c(C(c3nnnn3Cc3ccco3)N3CCN(C)CC3)cc2c1 (centres undefined),inactive

# (next part)

row,Compound,Potency
1,CC1CC(=O)c2cnc(NCC3CCCO3)nc2C1 (centres undefined),inactive
2,Oc1ccc(Cl)cc1Cc1cc(Cl)ccc1O,"inconclusive: 29.1 µM [inhibitor, single point]"
3,CCN(C(=O)COC(=O)c1cc(-c2ccccc2)nn1-c1ccccc1)C1CCS(=O)(=O)C1 (centres undefined),"inconclusive: 8.91 µM [inhibitor, partial curve]"
4,CCN(CC)c1ccc(N2C(=O)/C(=C\c3cccnc3)SC2=S)cc1,"inconclusive: 2.59 µM [inhibitor, partial curve]"
5,COc1ccc(S(=O)(=O)N2CCC(C(=O)Nc3ccc(Oc4ccccc4)cc3)CC2)cc1,inactive
6,CN(c1c[nH]c(=O)[nH]c1=O)C1CCCCC1,inactive
7,COc1cc(C(=O)NCC(=O)OCc2cc(=O)oc3c(C)c(C)ccc23)cc(OC)c1OC,inactive
8,O=C(NNc1c(F)c(F)cc(F)c1F)c1cc2ccccc2oc1=O,inactive
9,Cc1cc(N2CCOCC2)ccc1/C=C\[N+](=O)[O-],active: 20.6 µM
10,CCN(CC)CCOc1ccc2c(c1)C(=NO)c1cc(OCCN(CC)CC)ccc1-2,active: 10.3 µM
11,O=c1cc(CNc2cc(C(F)(F)F)cc(C(F)(F)F)c2)nc2sccn12,"inconclusive: 11.2 µM [inhibitor, single point]"
12,O=C(O)c1cccc(C(=O)Nc2cccc(NC(=O)C3CCCO3)c2)c1 (centres undefined),active: 10 µM
13,CC(Sc1nnc(-c2cccs2)n1-c1ccccc1)C(=O)NCc1ccc2c(c1)OCO2 (centres undefined),"inconclusive: 3.55 µM [inhibitor, full curve]"
14,COc1ccc(C2=NN(C(C#N)c3ccc(OC)c(OC)c3)C(c3ccccc3)C2)cc1 (centres undefined),"inconclusive: 20.6 µM [inhibitor, single point]"
15,COc1cccc(CN(C)C(=O)CNC(=O)c2cccs2)c1OC,"inconclusive: 5.62 µM [inhibitor, single point]"
16,O=C(CCCN1C(=O)S/C(=C\C=C\c2ccccc2)C1=O)Nc1ccc(O)cc1,"inconclusive: 35.5 µM [inhibitor, single point]"
17,COc1ccc(Cn2c(C(=O)O)c(CNCc3ccccc3F)c3ccc(OC)cc32)cc1,"inconclusive: 20 µM [inhibitor, single point]"
18,COC(=O)c1ccc(C2c3c(-c4ccccc4O)n[nH]c3C(=O)N2Cc2cccnc2)cc1 (centres undefined),"inconclusive: 3.16 µM [inhibitor, partial curve, poor fit]"
19,CCCCC/C=C\CC(O)/C=C/c1cccc(CC(O)CCCCO)n1 (centres undefined),"inconclusive: 18.3 µM [inhibitor, single point]"
20,CCN(CCCNC(=O)Cn1ncc2c3ccccc3n(C)c2c1=O)Cc1ccccc1,"inconclusive: 11.2 µM [activator, partial curve]"
21,CCOC(=O)Nc1ccc(OC)c([N+](=O)[O-])c1,inactive
22,O=C1Nc2ccc(C(=O)O)c(O)c2C1=O,inactive
23,COc1ccc(Nc2ncnc3sc(-c4ccccc4)cc23)cc1,inactive

row,Compound,Potency
1,COc1cccc(CN(C)C(=O)c2cccc(S(=O)(=O)NCc3ccccc3)c2)c1OC,"inconclusive: 17.8 µM [inhibitor, single point]"
2,CN1C(=O)/C(=C\c2ccc(N3CCCCC3)o2)C(=O)NC1=S,"inconclusive: 1.3 µM [activator, full curve, poor fit]"
3,COC(=O)c1sccc1N/N=C/c1ccc(OC)c(OC)c1OC,"inconclusive: 35.5 µM [inhibitor, single point]"
4,O=C1N/C(=N\N=C\c2cccs2)SC1Cc1cccc(Cl)c1Cl (centres undefined),"inconclusive: 2.51 µM [inhibitor, full curve, poor fit]"
5,COC(=O)c1cccc(Cn2c(Cl)c(/C=N/Nc3ccccc3C)sc2=O)c1,"inconclusive: 18.4 µM [inhibitor, partial curve, poor fit]"
6,COc1ccc(NS(=O)(=O)c2cc(NC(=O)C3CCCO3)ccc2N2CCCC2)cc1 (centres undefined),inactive
7,CCN(CC(=O)Nc1cc(S(=O)(=O)N2CCCCC2)ccc1Cl)Cc1ccccc1,"inconclusive: 25.1 µM [inhibitor, single point]"
8,Cc1noc(NC(=O)c2ccccc2)c1C#N,inactive
9,CCOc1ccccc1N(CC)C(=O)Cn1ncc2c([nH]c3ccccc32)c1=O,"inconclusive: 20 µM [inhibitor, single point]"
10,CCOc1ccccc1NC(=O)C(OC(=O)c1ccccc1O)c1ccccc1 (centres undefined),inactive
11,NC(=O)C1CCN(C(=O)c2ccc(NC(=O)c3nsc4ccccc34)cc2)CC1,"inconclusive: 0.562 µM [activator, full curve, poor fit]"
12,COC(=O)c1sc2cnccc2c1N,inactive
13,CCOC(=O)c1ccccc1N/C=C1\CCCCC1=O,"inconclusive: 0.0052 µM [inhibitor, full curve, poor fit]"
14,CC(=O)Nc1ccc(S(=O)(=O)N2CCN(C(=O)CCC3CCCC3)CC2)cc1,"inconclusive: 23.1 µM [inhibitor, partial curve]"
15,COc1cc(CN2CCC(C(=O)N3CCN(c4ccccc4F)CC3)CC2)ccc1O,inactive
16,CCOC(=O)N1CCN(C(=O)COC(=O)c2oc3ccc(OC)cc3c2C)CC1,"inconclusive: 8.91 µM [inhibitor, partial curve]"
17,O=C(COC(=O)/C=C/c1ccco1)NCc1ccc2c(c1)OCO2,inactive
18,CCCCC/C=C\C/C=C\C/C=C\C/C=C\CCCC(=O)NCC(=O)O,"inconclusive: 0.0183 µM [activator, full curve, poor fit]"
19,O=C1C2C3CCC(C3)C2C(=O)N1c1ccc(OS(=O)(=O)c2ccccc2)cc1 (centres undefined),"inconclusive: 7.94 µM [inhibitor, partial curve, poor fit]"
20,COc1cc(OC)c(C(=O)Nc2cccnc2)cc1OC,inactive
21,Cc1c(Cl)cccc1Nc1nc(NCCO)c2ccccc2n1,"inconclusive: 10 µM [inhibitor, partial curve, poor fit]"
22,O=C(Nc1nnc(-c2ccccc2)o1)c1ccc(Cl)cc1,"inconclusive: 11.2 µM [inhibitor, partial curve]"
23,Cc1nc2ccc(NC(=O)c3cccc(S(=O)(=O)N4CCOCC4)c3)cc2s1,"inconclusive: 22.4 µM [inhibitor, single point]"
